Source: PMC12058146

The chains behind the UniProt entries cited, without tags or fusion partners. Where a name states a change or a piece, a line headed by the entry shows the natural chain unless it says otherwise.
UniProt A1ZAW0: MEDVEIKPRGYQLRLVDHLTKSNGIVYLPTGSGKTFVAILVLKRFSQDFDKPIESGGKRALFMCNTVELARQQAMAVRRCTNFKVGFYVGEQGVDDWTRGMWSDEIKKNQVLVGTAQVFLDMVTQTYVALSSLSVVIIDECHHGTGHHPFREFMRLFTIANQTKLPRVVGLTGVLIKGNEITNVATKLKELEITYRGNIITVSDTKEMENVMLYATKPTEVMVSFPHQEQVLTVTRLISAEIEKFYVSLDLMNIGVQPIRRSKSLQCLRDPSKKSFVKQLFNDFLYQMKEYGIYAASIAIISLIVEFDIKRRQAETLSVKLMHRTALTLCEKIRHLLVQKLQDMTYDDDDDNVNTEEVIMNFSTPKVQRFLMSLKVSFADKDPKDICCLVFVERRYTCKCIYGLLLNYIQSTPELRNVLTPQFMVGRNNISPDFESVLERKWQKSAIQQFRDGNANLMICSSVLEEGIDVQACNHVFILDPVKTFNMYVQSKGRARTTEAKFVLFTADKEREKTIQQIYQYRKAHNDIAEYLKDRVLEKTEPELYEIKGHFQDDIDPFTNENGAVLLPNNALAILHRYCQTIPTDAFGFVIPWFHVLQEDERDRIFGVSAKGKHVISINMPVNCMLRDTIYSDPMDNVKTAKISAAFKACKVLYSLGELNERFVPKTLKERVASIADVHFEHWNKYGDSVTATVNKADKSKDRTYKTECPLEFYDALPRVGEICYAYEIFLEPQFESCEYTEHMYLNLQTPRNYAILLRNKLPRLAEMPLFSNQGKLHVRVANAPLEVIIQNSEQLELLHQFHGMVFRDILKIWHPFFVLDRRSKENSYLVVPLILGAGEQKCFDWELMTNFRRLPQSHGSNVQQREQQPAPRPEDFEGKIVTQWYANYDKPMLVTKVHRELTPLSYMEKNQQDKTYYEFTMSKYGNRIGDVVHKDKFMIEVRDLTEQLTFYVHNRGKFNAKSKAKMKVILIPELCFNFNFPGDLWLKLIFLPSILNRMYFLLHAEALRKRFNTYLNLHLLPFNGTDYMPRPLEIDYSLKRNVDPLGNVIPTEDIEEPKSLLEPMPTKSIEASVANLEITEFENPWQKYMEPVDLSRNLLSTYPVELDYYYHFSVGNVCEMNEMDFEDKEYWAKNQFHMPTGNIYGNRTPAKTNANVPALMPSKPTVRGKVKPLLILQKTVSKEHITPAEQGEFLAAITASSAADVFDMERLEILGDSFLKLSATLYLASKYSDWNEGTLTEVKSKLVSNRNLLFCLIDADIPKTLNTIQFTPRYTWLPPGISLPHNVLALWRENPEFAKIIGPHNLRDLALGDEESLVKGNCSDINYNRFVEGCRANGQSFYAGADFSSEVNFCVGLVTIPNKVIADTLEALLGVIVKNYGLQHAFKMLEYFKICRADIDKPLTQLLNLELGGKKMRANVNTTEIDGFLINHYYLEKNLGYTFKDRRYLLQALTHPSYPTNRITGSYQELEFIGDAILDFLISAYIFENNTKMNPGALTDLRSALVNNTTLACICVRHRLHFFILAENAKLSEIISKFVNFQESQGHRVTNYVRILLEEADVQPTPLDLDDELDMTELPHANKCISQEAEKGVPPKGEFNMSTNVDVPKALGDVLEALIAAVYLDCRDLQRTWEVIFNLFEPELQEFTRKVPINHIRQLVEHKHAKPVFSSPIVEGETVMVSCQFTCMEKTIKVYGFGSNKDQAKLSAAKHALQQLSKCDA
UniProt Q9I7T7: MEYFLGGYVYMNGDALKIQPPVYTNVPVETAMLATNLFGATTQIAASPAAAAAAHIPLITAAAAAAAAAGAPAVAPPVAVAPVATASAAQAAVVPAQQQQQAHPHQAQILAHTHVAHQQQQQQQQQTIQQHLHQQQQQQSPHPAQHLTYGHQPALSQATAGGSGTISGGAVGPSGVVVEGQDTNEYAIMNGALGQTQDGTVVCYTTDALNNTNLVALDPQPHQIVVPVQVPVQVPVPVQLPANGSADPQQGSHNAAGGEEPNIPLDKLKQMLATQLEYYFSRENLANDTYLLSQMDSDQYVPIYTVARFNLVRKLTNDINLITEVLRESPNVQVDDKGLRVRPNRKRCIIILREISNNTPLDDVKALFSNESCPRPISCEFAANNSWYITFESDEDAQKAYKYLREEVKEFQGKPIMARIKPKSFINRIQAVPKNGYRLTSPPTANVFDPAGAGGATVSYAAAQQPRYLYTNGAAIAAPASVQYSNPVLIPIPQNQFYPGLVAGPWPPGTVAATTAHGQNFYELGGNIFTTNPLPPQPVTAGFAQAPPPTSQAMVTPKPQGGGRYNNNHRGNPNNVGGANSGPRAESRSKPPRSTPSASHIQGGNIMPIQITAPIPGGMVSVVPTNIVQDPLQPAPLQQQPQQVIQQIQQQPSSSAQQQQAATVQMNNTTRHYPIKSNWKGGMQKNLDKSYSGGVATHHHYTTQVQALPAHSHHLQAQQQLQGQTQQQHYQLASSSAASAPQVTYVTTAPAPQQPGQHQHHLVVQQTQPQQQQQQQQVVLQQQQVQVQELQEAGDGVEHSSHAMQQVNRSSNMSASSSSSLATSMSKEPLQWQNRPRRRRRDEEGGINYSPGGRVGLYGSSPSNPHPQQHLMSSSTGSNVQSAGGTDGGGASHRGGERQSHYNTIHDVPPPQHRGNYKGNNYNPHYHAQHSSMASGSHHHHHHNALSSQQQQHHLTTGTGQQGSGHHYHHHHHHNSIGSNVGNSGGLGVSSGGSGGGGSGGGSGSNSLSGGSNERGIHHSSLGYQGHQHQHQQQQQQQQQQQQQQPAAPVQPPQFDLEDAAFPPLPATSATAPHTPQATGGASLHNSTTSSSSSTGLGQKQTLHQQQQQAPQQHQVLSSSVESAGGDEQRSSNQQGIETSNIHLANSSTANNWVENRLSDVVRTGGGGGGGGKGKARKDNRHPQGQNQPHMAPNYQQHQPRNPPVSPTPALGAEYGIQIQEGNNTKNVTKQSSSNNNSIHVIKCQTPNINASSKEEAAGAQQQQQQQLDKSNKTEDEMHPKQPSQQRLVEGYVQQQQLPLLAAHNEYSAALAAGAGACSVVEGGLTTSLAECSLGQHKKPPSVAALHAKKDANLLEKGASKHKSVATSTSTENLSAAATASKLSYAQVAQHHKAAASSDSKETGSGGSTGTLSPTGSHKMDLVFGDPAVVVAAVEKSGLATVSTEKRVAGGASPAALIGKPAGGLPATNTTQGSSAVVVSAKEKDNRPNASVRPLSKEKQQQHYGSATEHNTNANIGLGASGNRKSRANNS
UniProt P28668: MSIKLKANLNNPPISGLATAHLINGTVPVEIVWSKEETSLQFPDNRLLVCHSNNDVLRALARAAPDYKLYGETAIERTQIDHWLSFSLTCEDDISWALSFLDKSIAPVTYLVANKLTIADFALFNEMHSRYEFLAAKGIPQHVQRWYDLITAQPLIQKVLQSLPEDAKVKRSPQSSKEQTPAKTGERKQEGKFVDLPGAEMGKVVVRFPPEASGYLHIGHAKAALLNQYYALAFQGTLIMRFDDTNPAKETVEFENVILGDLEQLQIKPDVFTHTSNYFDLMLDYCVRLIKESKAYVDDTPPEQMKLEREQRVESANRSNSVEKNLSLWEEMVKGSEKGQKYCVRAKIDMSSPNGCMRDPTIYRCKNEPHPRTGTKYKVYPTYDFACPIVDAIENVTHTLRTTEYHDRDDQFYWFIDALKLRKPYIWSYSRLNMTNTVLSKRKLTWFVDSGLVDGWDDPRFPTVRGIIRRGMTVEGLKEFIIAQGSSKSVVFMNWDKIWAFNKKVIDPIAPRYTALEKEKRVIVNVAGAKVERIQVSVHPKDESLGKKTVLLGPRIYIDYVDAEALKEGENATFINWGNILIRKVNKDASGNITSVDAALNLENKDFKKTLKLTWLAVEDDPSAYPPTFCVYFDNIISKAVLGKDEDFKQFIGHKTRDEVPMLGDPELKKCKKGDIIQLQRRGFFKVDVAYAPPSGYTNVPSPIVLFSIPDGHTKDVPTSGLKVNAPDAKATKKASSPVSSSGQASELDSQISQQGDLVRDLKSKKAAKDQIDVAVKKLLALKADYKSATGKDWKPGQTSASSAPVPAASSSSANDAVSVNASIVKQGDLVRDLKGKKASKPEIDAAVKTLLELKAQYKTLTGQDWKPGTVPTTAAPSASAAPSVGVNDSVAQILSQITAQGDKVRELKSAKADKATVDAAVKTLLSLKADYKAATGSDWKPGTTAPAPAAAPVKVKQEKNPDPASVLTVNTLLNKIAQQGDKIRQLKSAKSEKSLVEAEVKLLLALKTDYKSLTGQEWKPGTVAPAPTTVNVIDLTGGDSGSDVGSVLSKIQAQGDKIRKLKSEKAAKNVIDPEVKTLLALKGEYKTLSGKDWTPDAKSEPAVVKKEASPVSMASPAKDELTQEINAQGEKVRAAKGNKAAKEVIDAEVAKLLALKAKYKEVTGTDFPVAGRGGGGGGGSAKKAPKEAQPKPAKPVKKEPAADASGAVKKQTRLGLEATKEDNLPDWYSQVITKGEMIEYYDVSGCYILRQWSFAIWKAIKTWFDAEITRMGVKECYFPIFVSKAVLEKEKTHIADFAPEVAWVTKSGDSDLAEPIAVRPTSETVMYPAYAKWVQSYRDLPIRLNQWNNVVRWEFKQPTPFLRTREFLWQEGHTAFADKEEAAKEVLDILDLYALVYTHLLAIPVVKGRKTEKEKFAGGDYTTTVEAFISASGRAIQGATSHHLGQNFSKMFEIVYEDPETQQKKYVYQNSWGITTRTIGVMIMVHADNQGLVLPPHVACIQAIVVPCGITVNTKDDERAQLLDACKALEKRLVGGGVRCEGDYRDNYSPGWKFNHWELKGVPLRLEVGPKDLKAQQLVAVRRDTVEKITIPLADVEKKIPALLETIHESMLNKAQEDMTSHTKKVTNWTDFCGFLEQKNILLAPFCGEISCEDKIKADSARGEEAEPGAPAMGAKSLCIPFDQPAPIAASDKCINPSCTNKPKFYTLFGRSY
UniProt Q9VN21: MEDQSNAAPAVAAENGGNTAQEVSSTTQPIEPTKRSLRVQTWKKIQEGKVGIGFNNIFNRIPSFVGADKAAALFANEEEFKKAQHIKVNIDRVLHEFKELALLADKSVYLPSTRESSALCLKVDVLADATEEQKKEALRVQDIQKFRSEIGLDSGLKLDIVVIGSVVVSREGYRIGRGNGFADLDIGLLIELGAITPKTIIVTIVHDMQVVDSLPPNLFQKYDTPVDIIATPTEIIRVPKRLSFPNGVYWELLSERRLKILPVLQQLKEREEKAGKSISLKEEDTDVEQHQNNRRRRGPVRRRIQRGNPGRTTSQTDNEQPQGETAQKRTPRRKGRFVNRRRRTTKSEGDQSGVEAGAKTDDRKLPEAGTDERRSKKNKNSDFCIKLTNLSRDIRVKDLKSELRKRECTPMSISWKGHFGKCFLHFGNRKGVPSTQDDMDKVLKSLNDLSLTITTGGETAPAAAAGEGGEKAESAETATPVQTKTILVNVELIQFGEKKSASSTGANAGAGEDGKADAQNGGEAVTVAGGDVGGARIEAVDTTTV
UniProt P19109: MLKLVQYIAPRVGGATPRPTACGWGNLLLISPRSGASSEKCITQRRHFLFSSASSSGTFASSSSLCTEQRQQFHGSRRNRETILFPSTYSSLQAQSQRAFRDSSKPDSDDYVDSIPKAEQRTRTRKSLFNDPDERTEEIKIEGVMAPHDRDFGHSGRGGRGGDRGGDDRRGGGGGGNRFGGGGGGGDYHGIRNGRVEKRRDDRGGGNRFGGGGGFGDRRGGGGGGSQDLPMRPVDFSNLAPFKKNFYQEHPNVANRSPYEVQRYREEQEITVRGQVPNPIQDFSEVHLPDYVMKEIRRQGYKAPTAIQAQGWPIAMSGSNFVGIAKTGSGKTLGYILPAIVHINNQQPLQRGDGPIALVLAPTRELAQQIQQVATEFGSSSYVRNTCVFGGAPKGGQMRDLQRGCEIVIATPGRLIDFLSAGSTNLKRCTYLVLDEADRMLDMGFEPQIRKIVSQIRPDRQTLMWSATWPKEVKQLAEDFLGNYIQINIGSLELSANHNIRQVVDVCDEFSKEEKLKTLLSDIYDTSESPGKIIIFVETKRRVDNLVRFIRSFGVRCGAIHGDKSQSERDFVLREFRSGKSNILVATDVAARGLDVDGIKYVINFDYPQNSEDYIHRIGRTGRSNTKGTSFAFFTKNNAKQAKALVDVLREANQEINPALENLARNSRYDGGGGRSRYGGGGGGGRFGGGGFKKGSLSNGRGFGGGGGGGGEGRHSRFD

Assays:
[1] = target: GFP::Dicer-2^WT (Drosophila melanogaster) (UniProt A1ZAW0); assay: affinity purification with mass spectrometry; second IP-MS, lysate of adult flies treated with 15 µg RNase A for 30 min at 4°C before the anti-GFP IP; GFP::Dicer-2^WT against Ctrl-GFP
[2] = target: GFP::Dicer-2^WT (Drosophila melanogaster) (UniProt A1ZAW0); assay: affinity purification with mass spectrometry; anti-GFP beads (Miltenyi) on lysates of adult flies injected with TRIS (mock) or DCV (500 PFU), 2 or 3 days; 30 mM HEPES KOH pH 7.5, 50 mM NaCl, 2 mM Mg(OAc)2, 1% NP40 (washes 0.1% NP40), 4°C; LC-MS/MS, enrichment against Ctrl-WT + Ctrl-GFP; also the untreated half of the second IP-MS (against Ctrl-GFP); low stringency
[3] = target: GFP::Dicer-2^WT (Drosophila melanogaster) (UniProt A1ZAW0); assay: as above; remark: listed apart in the source

Molecule: Larp4B (from UniProt Q9I7T7 1-1531)
- binding [2]: binds

Molecule: Aats-glupro (from UniProt P28668 1-1714)
- binding [2]: binds

B1: CkIα (protein, UniProt P54367 1-337)
chain: MDKMRILKESRPEIIVGGKYRVIRKIGSGSFGDIYLGMSIQSGEEVAIKMESAHARHPQLLYEAKLYRILSGGVGFPRIRHHGKEKNFNTLVMDLLGPSLEDLFNFCTRHFTIKTVLMLVDQMIGRLEYIHLKCFIHRDIKPDNFLMGIGRHCNKLFLIDFGLAKKFRDPHTRHHIVYREDKNLTGTARYASINAHLGIEQSRRDDMESLGYVMMYFNRGVLPWQGMKANTKQQKYEKISEKKMSTPIEVLCKGSPAEFSMYLNYCRSLRFEEQPDYMYLRQLFRILFRTLNHQYDYIYDWTMLKQKTHQGQPNPAILLEQLDKDKEKQNGKPLIAD
- binding [3]: binds

B2: Argonaute2 (AGO2) (protein, UniProt Q9VUQ5 1-1214)
chain: MGKKDKNKKGGQDSAAAPQPQQQQKQQQQRQQQPQQLQQPQQLQQPQQLQQPQQQQQQQPHQQQQQSSRQQPSTSSGGSRASGFQQGGQQQKSQDAEGWTAQKKQGKQQVQGWTKQGQQGGHQQGRQGQDGGYQQRPPGQQQGGHQQGRQGQEGGYQQRPPGQQQGGHQQGRQGQEGGYQQRPSGQQQGGHQQGRQGQEGGYQQRPPGQQQGGHQQGRQGQEGGYQQRPSGQQQGGHQQGRQGQEGGYQQRPPGQQQGGHQQGRQGQEGGYQQRPPGQQQGGHEQGRQGQEGGYQQRPSGQQQGGHQQGRQGQEGGYQQRPSGQQQGGHQQGRQGQEGGYQQRPSGQQQGGHQQGRQGQEGGYQQRPPGQQPNQTQSQGQYQSRGPPQQQQAAPLPLPPQPAGSIKRGTIGKPGQVGINYLDLDLSKMPSVAYHYDVKIMPERPKKFYRQAFEQFRVDQLGGAVLAYDGKASCYSVDKLPLNSQNPEVTVTDRNGRTLRYTIEIKETGDSTIDLKSLTTYMNDRIFDKPMRAMQCVEVVLASPCHNKAIRVGRSFFKMSDPNNRHELDDGYEALVGLYQAFMLGDRPFLNVDISHKSFPISMPMIEYLERFSLKAKINNTTNLDYSRRFLEPFLRGINVVYTPPQSFQSAPRVYRVNGLSRAPASSETFEHDGKKVTIASYFHSRNYPLKFPQLHCLNVGSSIKSILLPIELCSIEEGQALNRKDGATQVANMIKYAATSTNVRKRKIMNLLQYFQHNLDPTISRFGIRIANDFIVVSTRVLSPPQVEYHSKRFTMVKNGSWRMDGMKFLEPKPKAHKCAVLYCDPRSGRKMNYTQLNDFGNLIISQGKAVNISLDSDVTYRPFTDDERSLDTIFADLKRSQHDLAIVIIPQFRISYDTIKQKAELQHGILTQCIKQFTVERKCNNQTIGNILLKINSKLNGINHKIKDDPRLPMMKNTMYIGADVTHPSPDQREIPSVVGVAASHDPYGASYNMQYRLQRGALEEIEDMFSITLEHLRVYKEYRNAYPDHIIYYRDGVSDGQFPKIKNEELRCIKQACDKVGCKPKICCVIVVKRHHTRFFPSGDVTTSNKFNNVDPGTVVDRTIVHPNEMQFFMVSHQAIQGTAKPTRYNVIENTGNLDIDLLQQLTYNLCHMFPRCNRSVSYPAPAYLAHLVAARGRVYLTGTNRFLDLKKEYAKRTIVPEFMKKNPMYFV
- binding [3]: binds

B3: Arc1 (protein, UniProt Q7K1U0 1-254)
chain: MAQLTQMTNEQLRELIEAVRAAAVGAAGSAAAAGGADASRGKGNFSACTHSFGGTRDHDVVEEFIGNIETYKDVEGISDENALKGISLLFYGMASTWWQGVRKEATTWKEAIALIREHFSPTKPAYQIYMEFFQNKQDDHDPIDTFVIQKRALLAQLPSGRHDEETELDLLFGLLNIKYRKHISRHSVHTFKDLLEQGRIIEHNNQEDEEQLATAKNTRGSKRTTRCTYCSFRGHTFDNCRKRQKDRQEEQHEE
- binding [3]: binds

B5: R2D2 (protein, UniProt Q9VLW8 1-311)
chain: MDNKSAVSALQEFCARTQINLPTYSFIPGEDGGYVCKVELLEIEALGNGRSKRDAKHLAASNILRKIQLLPGIHGLMKDSTVGDLDEELTNLNRDMVKELRDYCVRREMPLPCIEVVQQSGTPSAPEFVACCSVASIVRYGKSDKKKDARQRAAIEMLALISSNSDNLRPDQMQVASTSKLKVVDMEESMEELEALRRKKFTTYWELKEAGSVDHTGMRLCDRHNYFKNFYPTLKKEAIEAINSDEYESSKDKAMDVMSSLKITPKISEVESSSLVPLLSVELNCAFDVVLMAKETDIYDHIIDYFRTMLI
- binding [1]: binds
- binding [3]: binds

B6: Exuperantia (Exu) (protein, UniProt P28750 1-532)
chain: MVADNIDAGVAIAVADQSSSPVGDKVELPAGNYILVGVDIDTTGRRLMDEIVQLAAYTPTDHFEQYIMPYMNLNPAARQRHQVRVISIGFYRMLKSMQTYKIIKSKSEIAALKDFLNWLEQLKTKAGPSSDGIVLIYHEERKFIPYMILESLKKYGLLERFTASVKSFANSINLAKASIGDANIKNYSLRKLSKILSTTKEEDAACSASTSGSGSGLGSGSSMVSDSVSISPRDSTVTNGDDKQSSKNAVQGKRELFDGNASVRAKLAFDVALQLSNSDGKPEPKSSEALENMFNAIRPFAKLVVSDVLELDIQIENLERQNSFRPVFLNYFKTTLYHRVRAVKFRIVLAENGFDLNTLSAIWAEKNIEGLDIALQSIGRLKSKDKAELLELLDSYFDPKKTTVKPVVKGNSNNNNNYRRRNRRGGRQSVKDARPSSSPSASTEFGAGGDKSRSVSSLPDSTTKTPSPNKPRMHRKRNSRQSLGATPNGLKVAAEISSSGVSELNNSAPPAVTISPVVAQPSPTPVAITASN
- binding [3]: binds

Other lines, results leading:

- binding [1]: binds
- binding [2]: binds
Molecule: Lost (from UniProt Q9VN21)

- binding [2]: binds
Molecule: Rm62 (from UniProt P19109 1-719)

- binding [3]: binds
B4: Me31B (protein, UniProt P23128 1-459)
chain: MMTEKLNSGHTNLTSKGIINDLQIAGNTSDDMGWKSKLKLPPKDNRFKTTDVTDTRGNEFEEFCLKRELLMGIFEKGWERPSPIQEAAIPIALSGKDVLARAKNGTGKTGAYCIPVLEQIDPTKDYIQALVMVPTRELALQTSQICIELAKHLDIRVMVTTGGTILKDDILRIYQKVQLIIATPGRILDLMDKKVADMSHCRILVLDEADKLLSLDFQGMLDHVILKLPKDPQILLFSATFPLTVKNFMEKHLREPYEINLMEELTLKGVTQYYAFVQERQKVHCLNTLFSKLQINQSIIFCNSTQRVELLAKKITELGYCCYYIHAKMAQAHRNRVFHDFRQGLCRNLVCSDLFTRGIDVQAVNVVINFDFPRMAETYLHRIGRSGRFGHLGIAINLITYEDRFDLHRIEKELGTEIKPIPKVIDPALYVANVGASVGDTCNNSDLNNSANEEGNVSK

- binding [3]: binds
B7: NorpA (protein, UniProt P13217 1-1095)
chain: MTKKYEFDWIIPVPPELTTGCVFDRWFENEKETKENDFERDALFKVDEYGFFLYWKSEGRDGDVIELCQVSDIRAGGTPKDPKILDKVTKKNGTNIPELDKRSLTICSNTDYINITYHHVICPDAATAKSWQKNLRLITHNNRATNVCPRVNLMKHWMRLSYCVEKSGKIPVKTLAKTFASGKTEKLVYTCIKDAGLPDDKNATMTKEQFTFDKFYALYHKVCPRNDIEELFTSITKGKQDFISLEQFIQFMNDKQRDPRMNEILYPLYEEKRCTEIINDYELDEEKKKNVQMSLDGFKRYLMSDENAPVFLDRLDFYMEMDQPLAHYYINSSHNTYLSGRQIGGKSSVEMYRQTLLAGCRCVELDCWNGKGEDEEPIVTHGHAYCTEILFKDCIQAIADCAFVSSEYPVILSFENHCNRAQQYKLAKYCDDFFGDLLLKEPLPDHPLDPGLPLPPPCKLKRKILIKNKRMKPEVEKVELELWLKGELKTDDDPEEDASAGKPPEAAAAPAPAPEAAAAAEGAAEGGGGAEAEAAAANYSGSTTNVHPWLSSMVNYAQPIKFQGFDKAIEKNIAHNMSSFAESAGMNYLKQSSIDFVNYNKRQMSRIYPKGTRADSSNYMPQVFWNAGCQMVSLNFQSSDLPMQLNQGKFEYNGGCGYLLKPDFMRRADKDFDPFADAPVDGVIAAQCSVKVIAGQFLSDKKVGTYVEVDMFGLPSDTVKKEFRTRLVANNGLNPVYNEDPFVFRKVVLPDLAVLRFGVYEESGKILGQRILPLDGLQAGYRHVSLRTEANFPMSLPMLFVNIELKIYVPDGFEDFMAMLSDPRGFAGAAKQQNEQMKALGIEEQSGGAARDAGKAKEEEKKEPPLVFEPVTLESLRQEKGFQKVGKKQIKELDTLRKKHAKERTSVQKTQNAAIDKLIKGKSKDDIRNDANIKNSINDQTKQWTDMIARHRKEEWDMLRQHVQDSQDAMKALMLTVQAAQIKQLEDRHARDIKDLNAKQAKMSADTAKEVQNDKTLKTKNEKDRRLREKRQNNVKRFMEEKKQIGVKQGRAMEKLKLAHSKQIEEFSTDVQKLMDMYKIEEEAYKTQGKTEFYA

No constants are given. Whether binding was seen depends on the method and setting. Binding seen in cells or lysates may run through a third protein. Here binding means that the protein was enriched with, or labelled near, the bait; the list need not be complete. Each block holds one molecule with its values, some of them ahead of it.
